Measurements reported in PubChem BioAssay AID1259297 (Sanger Institute, 2017).

Purpose: 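Kinase knock-downs that lower colorectal cancer cell viability or act with drugs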 (primary screen)
Cell system: human RCM1 colorectal cancer cell line
Reagent: siRNA pool against human genes
Treatment: separate arms: DMSO vehicle, or one anchor drug at a mild dose: BYL719 1 µM, cetuximab 5 µg/ml, trametinib 10 nM
Detection: 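Replicate-mean well viability as a share of non-targeting pool control, a robust z-score without drug, and synergy scores for BYL719, cetuximab and trametinib arms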
Reading the numbers: viability z-score, knock-down alone: higher = more viable cells than non-targeting controls; viability, knock-down alone (DMSO): higher = more viable cells
Active means: 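Essential when the viability robust z-score for knock-down alone is below -3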
Meaning of the calls: active = essential when knocked down alone; inactive = no clear loss of viability alone
In all, the deposit lists 794 reagents; below is an unselected part. 13 of them (1.6%) count as active. 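Calls reflect knock-down without drug only; drug synergy is judged separately, with scores above 0.15 counted as synergy.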 Entries without a mark were called inactive. Viability is capped at 1. Not all columns of the deposit are shown. Not stated in the record: the amount of reagent, the time to read-out.

NEK5
- viability z-score, knock-down alone: -0.216
- viability, knock-down alone (DMSO) (fraction of control): 0.896

PRKCH
- viability z-score, knock-down alone: -0.887
- viability, knock-down alone (DMSO) (fraction of control): 0.834

FRK
- viability z-score, knock-down alone: 0.303
- viability, knock-down alone (DMSO) (fraction of control): 0.945

BMPR1B
- viability z-score, knock-down alone: 0.49
- viability, knock-down alone (DMSO) (fraction of control): 0.962

RBM10
- viability z-score, knock-down alone: 0.288
- viability, knock-down alone (DMSO) (fraction of control): 0.943

MELK
- viability z-score, knock-down alone: 0.9
- viability, knock-down alone (DMSO) (fraction of control): 1

SPEG
- viability z-score, knock-down alone: 0.9
- viability, knock-down alone (DMSO) (fraction of control): 1

BRD3
- viability z-score, knock-down alone: 0.9
- viability, knock-down alone (DMSO) (fraction of control): 1

ARID1A
- viability z-score, knock-down alone: 0.9
- viability, knock-down alone (DMSO) (fraction of control): 1

TGFBR2
- viability z-score, knock-down alone: -0.722
- viability, knock-down alone (DMSO) (fraction of control): 0.849

PRKAB1
- viability z-score, knock-down alone: -2.53
- viability, knock-down alone (DMSO) (fraction of control): 0.681

ANKK1
- viability z-score, knock-down alone: 0.9
- viability, knock-down alone (DMSO) (fraction of control): 1

Entries above whose gene name starts with P or p:
PRKCH
- viability z-score, knock-down alone: -0.887
- viability, knock-down alone (DMSO) (fraction of control): 0.834

PRKAB1
- viability z-score, knock-down alone: -2.53
- viability, knock-down alone (DMSO) (fraction of control): 0.681
